Results reported in patent US10072023B2, “Diarylethene compounds and uses thereof” (SWITCH MATERIALS, INC., priority 2011, dated 2018).

Experiment: Electrochemical switching (Switch: reversible photochromic/electrochromic conversion)
Type: physicochemical
Design: key: Y: “Switch” refers to the ability (yes or no) of the compound to be reversibly converted under photochromic and electrochromic conditions between a ring-open isomer and ring-closed isomer
Conditions: reversibly converted under photochromic and electrochromic conditions

Question: With CC(C)(C)c1ccc(-c2oc3cc4c(cc3c2C2=C(c3c(-c5ccc(C(C)(C)C)cc5)oc5cc6c(cc35)OCO6)C(F)(F)C(F)(F)C2(F)F)OCO4)cc1 [S163, 7,7′-(perfluorocyclopent-1-ene-1,2-diyl)bis(6-(4-(tert-butyl)phenyl)-[1,3]dioxolo[4,5-f]benzofuran)] as the compound, how does the Switch read?
Answer: Y

Question: With COc1cc2oc(-c3ccc(C(C)(C)C)cc3)c(C3=C(c4c(-c5ccc(C(C)(C)C)cc5)oc5cc(OC)c(OC)cc45)C(F)(F)C(F)(F)C3(F)F)c2cc1OC [S164, 3,3′-(perfluorocyclopent-1-ene-1,2-diyl)bis(2-(4-(tert-butyl)phenyl)-5,6-dimethoxybenzofuran)] as the compound, how does the Switch read?
Answer: Y

Question: Which Switch does the source give for CC(C)(C)c1ccc(-c2cc(C3=C(c4cc(-c5ccc(C(C)(C)C)s5)sc4-c4cccs4)C(F)(F)C(F)(F)C3(F)F)c(-c3cccs3)s2)s1 [S170, 4,4′-(perfluorocyclopent-1-ene-1,2-diyl)bis(5′-tert-butyl-5-(thiopheyl)-2,2′-bithiophene)] here?
Answer: Y
